Data published in PMC12150047.
No constants are given. Whether binding was seen depends on the method and setting. Binding seen in cells or lysates may run through a third protein. Here binding means that the protein was enriched with, or labelled near, the bait; the list need not be complete. For some of these results: A no says only that the protein was not detected with the bait.

Amino acid sequences for entries named in this document (tags omitted). A change or cut given only in a name is not applied to a line headed by its entry. Chains listed by the source or under a name are the forms on record and can include a tag or linker.
UniProt P38533: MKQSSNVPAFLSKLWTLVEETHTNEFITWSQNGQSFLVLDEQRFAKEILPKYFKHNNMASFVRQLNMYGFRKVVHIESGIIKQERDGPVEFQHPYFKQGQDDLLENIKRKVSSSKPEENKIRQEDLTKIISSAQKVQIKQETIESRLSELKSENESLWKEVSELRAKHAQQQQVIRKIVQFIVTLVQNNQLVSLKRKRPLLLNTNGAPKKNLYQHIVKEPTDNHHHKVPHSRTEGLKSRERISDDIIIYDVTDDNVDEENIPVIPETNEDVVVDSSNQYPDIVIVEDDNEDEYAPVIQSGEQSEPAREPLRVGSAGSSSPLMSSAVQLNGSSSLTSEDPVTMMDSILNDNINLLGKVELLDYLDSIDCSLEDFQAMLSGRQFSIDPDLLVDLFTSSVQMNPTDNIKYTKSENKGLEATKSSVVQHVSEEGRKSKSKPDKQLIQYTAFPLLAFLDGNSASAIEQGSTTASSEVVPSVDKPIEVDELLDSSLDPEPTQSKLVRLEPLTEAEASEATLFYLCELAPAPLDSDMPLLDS
double-tagged HSF2β (CTAP-HSF2β) (P38533, form named): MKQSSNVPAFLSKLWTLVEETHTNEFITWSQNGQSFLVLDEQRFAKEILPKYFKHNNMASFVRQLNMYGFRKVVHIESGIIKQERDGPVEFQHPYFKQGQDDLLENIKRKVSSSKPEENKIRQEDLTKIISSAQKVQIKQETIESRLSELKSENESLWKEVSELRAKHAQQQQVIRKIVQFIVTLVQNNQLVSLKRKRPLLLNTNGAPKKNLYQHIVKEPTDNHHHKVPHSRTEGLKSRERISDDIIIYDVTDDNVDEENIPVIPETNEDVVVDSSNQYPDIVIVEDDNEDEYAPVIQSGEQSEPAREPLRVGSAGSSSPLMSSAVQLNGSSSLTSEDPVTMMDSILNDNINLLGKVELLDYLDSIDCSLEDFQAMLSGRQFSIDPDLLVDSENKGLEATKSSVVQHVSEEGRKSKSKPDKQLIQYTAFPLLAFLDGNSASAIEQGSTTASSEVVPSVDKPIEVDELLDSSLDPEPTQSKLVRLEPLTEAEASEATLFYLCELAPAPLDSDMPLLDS
UniProt O09106: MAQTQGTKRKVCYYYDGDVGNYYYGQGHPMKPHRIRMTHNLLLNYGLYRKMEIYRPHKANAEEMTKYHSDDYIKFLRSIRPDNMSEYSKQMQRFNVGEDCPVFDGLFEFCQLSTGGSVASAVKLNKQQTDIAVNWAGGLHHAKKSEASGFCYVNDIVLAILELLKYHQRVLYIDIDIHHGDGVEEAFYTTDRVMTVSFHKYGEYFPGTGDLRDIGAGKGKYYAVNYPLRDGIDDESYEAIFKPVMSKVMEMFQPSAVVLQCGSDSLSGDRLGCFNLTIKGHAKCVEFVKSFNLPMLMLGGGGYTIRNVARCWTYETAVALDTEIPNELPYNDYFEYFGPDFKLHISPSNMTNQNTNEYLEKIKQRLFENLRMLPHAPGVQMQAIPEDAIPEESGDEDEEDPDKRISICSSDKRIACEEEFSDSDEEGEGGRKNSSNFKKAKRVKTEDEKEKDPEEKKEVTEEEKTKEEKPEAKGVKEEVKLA
UniProt Q13547: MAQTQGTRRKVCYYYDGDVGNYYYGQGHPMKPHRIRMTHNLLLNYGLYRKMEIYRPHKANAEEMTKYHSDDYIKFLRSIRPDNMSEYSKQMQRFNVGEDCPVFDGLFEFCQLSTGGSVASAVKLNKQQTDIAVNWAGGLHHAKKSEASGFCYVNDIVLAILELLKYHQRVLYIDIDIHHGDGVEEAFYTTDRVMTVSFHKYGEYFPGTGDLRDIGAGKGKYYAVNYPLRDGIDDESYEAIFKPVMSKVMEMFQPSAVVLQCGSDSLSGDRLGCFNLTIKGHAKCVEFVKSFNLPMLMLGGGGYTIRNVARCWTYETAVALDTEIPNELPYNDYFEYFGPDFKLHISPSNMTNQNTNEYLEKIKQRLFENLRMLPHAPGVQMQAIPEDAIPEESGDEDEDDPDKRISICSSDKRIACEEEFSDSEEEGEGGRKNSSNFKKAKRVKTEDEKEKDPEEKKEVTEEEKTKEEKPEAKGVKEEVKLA
UniProt O15379: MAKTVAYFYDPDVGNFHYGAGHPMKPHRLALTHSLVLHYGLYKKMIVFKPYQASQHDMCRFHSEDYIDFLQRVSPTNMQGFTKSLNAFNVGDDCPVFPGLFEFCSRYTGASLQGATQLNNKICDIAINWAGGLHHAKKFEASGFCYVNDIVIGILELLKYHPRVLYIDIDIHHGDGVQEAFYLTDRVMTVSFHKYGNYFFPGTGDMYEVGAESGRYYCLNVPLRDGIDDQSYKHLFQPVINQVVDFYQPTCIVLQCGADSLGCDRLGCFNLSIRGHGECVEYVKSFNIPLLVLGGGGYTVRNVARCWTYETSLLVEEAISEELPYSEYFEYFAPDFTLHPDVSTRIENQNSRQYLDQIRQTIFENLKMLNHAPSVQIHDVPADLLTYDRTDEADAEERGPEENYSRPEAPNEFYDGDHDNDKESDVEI
UniProt Q03933: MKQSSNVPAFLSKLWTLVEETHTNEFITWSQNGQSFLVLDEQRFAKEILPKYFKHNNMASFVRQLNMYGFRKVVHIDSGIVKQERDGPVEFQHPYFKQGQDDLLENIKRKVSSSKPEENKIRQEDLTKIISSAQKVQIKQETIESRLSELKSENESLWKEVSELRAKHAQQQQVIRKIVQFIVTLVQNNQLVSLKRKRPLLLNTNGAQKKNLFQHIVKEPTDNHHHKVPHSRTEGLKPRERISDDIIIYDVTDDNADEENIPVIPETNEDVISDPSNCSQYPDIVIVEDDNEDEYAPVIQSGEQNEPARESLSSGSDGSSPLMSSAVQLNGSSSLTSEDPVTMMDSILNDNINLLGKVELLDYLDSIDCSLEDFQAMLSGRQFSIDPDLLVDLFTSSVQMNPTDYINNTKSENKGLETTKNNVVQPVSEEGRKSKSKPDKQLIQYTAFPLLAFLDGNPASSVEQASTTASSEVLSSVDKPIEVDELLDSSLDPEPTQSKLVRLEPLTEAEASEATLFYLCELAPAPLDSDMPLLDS
UniProt P37198: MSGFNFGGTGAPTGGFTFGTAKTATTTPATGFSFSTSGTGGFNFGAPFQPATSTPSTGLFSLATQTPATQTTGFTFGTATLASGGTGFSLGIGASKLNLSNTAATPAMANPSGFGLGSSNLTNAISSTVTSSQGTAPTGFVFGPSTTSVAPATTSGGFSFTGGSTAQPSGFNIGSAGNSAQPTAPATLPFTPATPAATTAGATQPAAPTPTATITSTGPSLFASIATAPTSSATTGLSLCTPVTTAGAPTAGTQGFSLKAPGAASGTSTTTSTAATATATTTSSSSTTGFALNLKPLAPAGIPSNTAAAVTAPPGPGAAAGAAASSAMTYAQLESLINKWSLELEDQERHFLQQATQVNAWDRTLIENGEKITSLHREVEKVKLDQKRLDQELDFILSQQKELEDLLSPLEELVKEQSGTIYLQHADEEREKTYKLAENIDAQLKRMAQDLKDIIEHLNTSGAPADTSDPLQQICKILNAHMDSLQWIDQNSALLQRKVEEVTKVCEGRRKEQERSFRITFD
UniProt Q92769: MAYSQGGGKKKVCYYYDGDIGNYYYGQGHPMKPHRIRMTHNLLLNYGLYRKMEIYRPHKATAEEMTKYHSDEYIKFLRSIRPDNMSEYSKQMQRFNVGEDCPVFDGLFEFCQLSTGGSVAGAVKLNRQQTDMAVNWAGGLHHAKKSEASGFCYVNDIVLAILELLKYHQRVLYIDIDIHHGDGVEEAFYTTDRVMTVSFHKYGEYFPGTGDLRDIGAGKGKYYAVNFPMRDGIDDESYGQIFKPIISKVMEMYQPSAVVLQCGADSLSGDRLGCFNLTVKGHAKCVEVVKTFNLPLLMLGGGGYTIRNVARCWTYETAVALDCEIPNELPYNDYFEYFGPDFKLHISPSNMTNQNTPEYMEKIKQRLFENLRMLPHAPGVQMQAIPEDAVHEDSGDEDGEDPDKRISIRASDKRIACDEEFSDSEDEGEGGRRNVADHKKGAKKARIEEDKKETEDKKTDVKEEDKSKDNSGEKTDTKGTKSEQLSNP
UniProt P62259: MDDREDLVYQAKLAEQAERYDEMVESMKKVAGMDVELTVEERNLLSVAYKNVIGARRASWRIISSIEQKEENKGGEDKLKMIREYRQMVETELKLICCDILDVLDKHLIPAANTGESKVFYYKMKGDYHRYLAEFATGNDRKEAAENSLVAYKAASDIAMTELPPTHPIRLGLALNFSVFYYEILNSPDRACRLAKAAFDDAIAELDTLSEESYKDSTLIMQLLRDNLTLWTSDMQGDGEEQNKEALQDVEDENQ
UniProt Q01320: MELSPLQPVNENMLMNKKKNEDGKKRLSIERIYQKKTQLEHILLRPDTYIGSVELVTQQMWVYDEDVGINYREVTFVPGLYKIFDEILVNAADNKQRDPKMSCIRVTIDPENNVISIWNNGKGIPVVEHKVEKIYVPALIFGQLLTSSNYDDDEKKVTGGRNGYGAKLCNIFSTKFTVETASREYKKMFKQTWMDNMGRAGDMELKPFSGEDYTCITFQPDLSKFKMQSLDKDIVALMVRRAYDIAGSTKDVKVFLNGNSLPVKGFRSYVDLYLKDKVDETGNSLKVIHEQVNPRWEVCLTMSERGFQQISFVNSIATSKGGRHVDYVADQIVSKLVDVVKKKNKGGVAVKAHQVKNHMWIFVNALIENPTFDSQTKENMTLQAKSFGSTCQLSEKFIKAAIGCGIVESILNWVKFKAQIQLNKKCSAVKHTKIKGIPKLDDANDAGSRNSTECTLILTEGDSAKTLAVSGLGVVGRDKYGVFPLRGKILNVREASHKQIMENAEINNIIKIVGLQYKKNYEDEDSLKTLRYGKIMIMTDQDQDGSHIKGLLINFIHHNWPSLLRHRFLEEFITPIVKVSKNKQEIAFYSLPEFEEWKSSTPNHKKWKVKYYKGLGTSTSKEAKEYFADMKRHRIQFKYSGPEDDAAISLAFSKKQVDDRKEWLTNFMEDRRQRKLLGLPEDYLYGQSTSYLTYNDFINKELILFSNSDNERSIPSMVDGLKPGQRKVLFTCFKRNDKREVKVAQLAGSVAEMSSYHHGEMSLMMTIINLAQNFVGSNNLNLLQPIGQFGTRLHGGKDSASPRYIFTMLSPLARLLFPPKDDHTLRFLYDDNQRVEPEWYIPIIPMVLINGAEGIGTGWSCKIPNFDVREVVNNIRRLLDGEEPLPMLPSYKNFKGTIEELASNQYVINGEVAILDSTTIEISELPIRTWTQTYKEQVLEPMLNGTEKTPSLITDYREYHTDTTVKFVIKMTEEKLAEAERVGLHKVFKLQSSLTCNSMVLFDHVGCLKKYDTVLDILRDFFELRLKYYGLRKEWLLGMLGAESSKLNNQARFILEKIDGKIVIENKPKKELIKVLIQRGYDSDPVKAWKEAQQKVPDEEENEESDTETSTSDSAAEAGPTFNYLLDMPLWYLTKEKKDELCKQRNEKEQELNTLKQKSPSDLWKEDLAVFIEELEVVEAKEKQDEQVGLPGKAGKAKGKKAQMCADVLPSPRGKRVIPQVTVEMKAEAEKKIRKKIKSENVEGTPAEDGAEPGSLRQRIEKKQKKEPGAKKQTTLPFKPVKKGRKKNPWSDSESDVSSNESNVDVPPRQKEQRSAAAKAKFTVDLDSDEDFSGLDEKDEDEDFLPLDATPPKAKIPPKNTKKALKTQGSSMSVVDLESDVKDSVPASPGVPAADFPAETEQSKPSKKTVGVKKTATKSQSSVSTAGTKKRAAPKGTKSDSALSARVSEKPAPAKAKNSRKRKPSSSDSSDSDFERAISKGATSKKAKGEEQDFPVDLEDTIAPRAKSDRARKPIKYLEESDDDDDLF

Key:
[1] = molecular target: endogenous HSF2 protein of the mouse fetal cortex (mouse (endogenous in fetal cortex)) (UniProt P38533); assay: affinity purification with mass spectrometry; endogenous HSF2 immunoprecipitated (monoclonal antibody 3E2, protein G agarose; PBS as control) from extracts of E17 mouse cortices (10 mM HEPES pH 7.9, 400 mM NaCl, 5% glycerol, EGTA); gel bands analysed by LC/MS/MS
[2] = molecular target: double-tagged HSF2β (CTAP-HSF2β) (mouse) (UniProt P38533); assay: affinity purification with mass spectrometry; double-affinity TAP-TAG: nuclear extracts of HeLa-S3 cells stably expressing double-tagged HSF2α or HSF2β on IgG-agarose overnight, washes in Tris 50 mM, NP40 0.1%, 150 mM, TEV elution, Dynabeads streptavidin, elution with D-biotin 5 mM; LC/MS/MS; empty vector as control
[3] = molecular target: double-tagged HSF2α (CTAP-HSF2α) (mouse) (UniProt P38533); assay: as above

Question: “lysine-deacetylase HDAC1, mouse (from UniProt O09106 1-482) (enzyme)” was tested. Which binding [1] did it give?
Answer: binds

Question: For “lysine-deacetylase HDAC1 (histone-deacetylase 1), human (from UniProt Q13547 1-482) (enzyme)”, which binding [2] is on record?
Answer: binds

Question: And the binding [3]?
Answer: binds

Question: “HDAC3, human (from UniProt O15379 1-428) (enzyme)” was tested. Which binding [2] did it give?
Answer: no binding

Question: What about the binding [3] of the same substance?
Answer: no binding

Question: Which binding [2] does the source give for “Heat Shock Factor HSF2 (identified in the TAP-TAG eluates, matched to HSF2_HUMAN) (from UniProt Q03933 1-536)” here?
Answer: binds

Question: What about the binding [3] of the same substance?
Answer: binds

Question: With “Nuclear pore glycoprotein p62 (from UniProt P37198 1-522)” as the substance, how does the binding [3] read?
Answer: binds

Question: Which results are given for “HDAC2, human (from UniProt Q92769 1-488) (enzyme)”?
Answer: binding [2]: no binding; binding [3]: no binding

Question: With “Ywhae 14-3-3 protein epsilon (from UniProt P62259 1-255)” as the substance, how does the binding [1] read?
Answer: binds

Question: Which binding [1] does the source give for Talin-1 (from UniProt P26039 1-2541) here?
Answer: binds

Question: For “DNA Topoisomerase 2a (from UniProt Q01320 1-1528) (enzyme)”, which binding [1] is on record?
Answer: binds
